In paper PMC5717138:
Positions count from the first letter of the chain named. Numbers in names are those of the source. No constants are given. Whether binding was seen depends on the method and setting. Binding seen in cells or lysates may run through a third protein. Some binding calls cover weakened binding; strength is not graded here. For some assays here: Sequences can lack the tags named with a protein. Blank lines part the entries; values can stand above or below the molecule they belong to.

Protein sequences, listed by entry. Tags and fused reporters are not part of them.
UniProt Q9NZJ0: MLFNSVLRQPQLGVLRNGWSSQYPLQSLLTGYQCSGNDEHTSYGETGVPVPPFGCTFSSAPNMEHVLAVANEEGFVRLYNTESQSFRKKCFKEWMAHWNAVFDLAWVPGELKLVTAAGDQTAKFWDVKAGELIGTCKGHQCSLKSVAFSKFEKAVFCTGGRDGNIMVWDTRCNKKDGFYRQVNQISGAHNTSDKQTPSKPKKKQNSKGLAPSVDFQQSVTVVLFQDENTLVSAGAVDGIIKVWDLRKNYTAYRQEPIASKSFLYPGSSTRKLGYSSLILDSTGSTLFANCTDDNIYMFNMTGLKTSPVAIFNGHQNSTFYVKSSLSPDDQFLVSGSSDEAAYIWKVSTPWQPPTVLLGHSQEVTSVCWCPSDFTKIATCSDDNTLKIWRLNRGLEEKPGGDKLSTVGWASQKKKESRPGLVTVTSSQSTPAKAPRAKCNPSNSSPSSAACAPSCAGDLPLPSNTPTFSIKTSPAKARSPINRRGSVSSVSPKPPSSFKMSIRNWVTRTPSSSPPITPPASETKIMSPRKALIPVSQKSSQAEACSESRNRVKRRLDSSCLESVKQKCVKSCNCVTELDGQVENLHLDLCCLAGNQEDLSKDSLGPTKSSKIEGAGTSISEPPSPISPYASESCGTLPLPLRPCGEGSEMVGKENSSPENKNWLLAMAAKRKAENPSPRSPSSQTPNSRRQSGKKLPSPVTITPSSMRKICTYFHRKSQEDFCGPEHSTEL
UniProt Q13619: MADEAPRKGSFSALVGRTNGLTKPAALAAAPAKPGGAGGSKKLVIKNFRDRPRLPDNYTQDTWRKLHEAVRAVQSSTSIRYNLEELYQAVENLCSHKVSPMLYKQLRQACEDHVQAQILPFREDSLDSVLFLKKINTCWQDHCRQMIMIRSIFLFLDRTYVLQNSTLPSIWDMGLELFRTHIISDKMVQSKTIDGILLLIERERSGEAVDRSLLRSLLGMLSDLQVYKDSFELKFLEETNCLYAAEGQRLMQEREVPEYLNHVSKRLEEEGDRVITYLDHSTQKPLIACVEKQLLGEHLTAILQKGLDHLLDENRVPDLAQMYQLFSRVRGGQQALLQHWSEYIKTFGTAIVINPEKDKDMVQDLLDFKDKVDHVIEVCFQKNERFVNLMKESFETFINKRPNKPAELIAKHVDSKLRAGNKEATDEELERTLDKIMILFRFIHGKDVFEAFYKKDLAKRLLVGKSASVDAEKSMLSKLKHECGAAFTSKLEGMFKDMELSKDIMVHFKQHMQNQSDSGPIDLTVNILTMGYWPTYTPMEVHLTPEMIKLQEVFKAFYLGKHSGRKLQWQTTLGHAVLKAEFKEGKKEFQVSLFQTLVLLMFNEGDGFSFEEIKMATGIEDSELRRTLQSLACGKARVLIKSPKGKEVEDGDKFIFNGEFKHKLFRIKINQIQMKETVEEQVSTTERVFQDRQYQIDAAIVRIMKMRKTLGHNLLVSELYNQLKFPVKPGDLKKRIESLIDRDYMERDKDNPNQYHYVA
UniProt Q16531: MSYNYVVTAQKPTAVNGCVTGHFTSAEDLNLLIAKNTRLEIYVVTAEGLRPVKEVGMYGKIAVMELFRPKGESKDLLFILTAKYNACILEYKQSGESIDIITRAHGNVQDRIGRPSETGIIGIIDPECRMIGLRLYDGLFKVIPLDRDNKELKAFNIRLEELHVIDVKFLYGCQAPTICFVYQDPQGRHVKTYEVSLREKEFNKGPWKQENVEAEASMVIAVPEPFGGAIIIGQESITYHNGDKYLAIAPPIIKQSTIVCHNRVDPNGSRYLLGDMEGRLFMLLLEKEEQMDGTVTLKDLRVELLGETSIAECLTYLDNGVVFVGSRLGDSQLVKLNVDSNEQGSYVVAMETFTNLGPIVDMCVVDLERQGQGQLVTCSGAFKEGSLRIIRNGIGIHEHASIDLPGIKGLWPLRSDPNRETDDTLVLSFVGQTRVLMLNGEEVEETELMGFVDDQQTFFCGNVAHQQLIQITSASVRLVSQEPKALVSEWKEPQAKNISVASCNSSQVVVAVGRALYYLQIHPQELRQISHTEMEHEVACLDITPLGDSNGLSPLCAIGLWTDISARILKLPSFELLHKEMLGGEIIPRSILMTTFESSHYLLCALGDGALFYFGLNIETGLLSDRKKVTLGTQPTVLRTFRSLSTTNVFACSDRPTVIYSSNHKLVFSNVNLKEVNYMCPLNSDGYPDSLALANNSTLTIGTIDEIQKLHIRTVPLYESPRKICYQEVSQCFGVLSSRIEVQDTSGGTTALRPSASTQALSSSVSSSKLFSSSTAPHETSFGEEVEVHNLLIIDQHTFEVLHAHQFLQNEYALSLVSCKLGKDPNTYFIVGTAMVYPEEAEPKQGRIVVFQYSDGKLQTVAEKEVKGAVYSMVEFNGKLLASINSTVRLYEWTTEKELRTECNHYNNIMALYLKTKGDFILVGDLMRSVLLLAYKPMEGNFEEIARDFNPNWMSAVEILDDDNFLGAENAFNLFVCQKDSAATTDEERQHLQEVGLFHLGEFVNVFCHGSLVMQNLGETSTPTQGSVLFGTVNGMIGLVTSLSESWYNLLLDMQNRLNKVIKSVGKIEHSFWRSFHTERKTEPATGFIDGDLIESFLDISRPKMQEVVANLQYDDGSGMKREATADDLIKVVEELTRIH
UniProt Q00987: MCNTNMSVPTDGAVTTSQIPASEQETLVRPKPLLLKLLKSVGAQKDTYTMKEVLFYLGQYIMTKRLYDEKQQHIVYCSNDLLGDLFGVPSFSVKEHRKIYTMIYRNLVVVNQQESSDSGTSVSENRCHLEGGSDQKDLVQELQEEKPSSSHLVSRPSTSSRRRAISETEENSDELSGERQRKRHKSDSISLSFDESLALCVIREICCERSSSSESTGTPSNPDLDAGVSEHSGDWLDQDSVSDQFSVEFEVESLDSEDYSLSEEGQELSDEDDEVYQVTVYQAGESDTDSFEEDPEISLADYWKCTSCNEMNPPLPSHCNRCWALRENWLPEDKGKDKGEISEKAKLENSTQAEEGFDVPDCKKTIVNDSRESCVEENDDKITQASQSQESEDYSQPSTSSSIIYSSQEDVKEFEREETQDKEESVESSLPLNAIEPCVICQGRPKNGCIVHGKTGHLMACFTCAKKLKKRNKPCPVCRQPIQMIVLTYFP

Assays:
[1] = molecular target: Flag-CDT2 (UniProt Q9NZJ0); test: co-IP; Flag-CDT2, Myc-Cul4A, Myc-DDB1 and Myc-RBX1 co-transfected into HEK293T; held on Flag M2 agarose beads, washed with HEPES buffer, eluted with Flag peptide
[2] = molecular target: T1, GFP-Polη (wild type) (human) (UniProt Q9Y253); test: co-IP; Polη (WT or T457A) with MDM2 (Supplementary Fig. 6g); format not shown
T1 sequence: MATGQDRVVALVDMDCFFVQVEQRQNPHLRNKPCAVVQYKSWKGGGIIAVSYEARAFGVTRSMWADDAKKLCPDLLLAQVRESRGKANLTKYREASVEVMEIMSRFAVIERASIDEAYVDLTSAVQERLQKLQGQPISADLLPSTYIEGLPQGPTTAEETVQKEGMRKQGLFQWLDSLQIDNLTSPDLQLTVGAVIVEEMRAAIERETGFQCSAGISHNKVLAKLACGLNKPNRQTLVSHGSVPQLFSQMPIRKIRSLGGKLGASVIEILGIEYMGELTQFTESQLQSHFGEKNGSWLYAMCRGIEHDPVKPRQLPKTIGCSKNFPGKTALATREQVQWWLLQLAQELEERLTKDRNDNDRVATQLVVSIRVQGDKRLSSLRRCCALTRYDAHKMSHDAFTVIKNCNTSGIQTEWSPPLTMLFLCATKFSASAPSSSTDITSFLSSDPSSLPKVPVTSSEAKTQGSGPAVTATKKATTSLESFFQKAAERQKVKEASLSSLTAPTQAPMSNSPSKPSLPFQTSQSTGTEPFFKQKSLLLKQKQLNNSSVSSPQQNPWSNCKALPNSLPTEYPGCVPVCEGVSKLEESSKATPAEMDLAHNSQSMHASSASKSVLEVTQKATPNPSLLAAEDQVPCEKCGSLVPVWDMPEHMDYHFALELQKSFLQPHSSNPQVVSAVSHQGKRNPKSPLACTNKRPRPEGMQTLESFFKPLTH

[3] = molecular target: T2, GFP-Polη T457A (human) (UniProt Q9Y253); test: as above
T2 sequence: T1 sequence with T457A

[4] = molecular target: T1, GFP-Polη (wild type) (human); test: co-IP; Flag-DDB1 or Flag-CDT2 and GFP-Polη (WT, T457A) transfected into 293T cells; GFP-Trap A; blots with anti-GFP and anti-Flag
[5] = molecular target: T2, GFP-Polη T457A (human); test: as above
[6] = molecular target: T3, Flag-UFD1 (UniProt Q92890); test: co-IP; Flag-UFD1 or Flag-NPL4 and GFP-Polη (WT, T457A or 5A) transfected into 293T cells; anti-Flag M2 beads; blots with anti-GFP and anti-Flag
T3 sequence: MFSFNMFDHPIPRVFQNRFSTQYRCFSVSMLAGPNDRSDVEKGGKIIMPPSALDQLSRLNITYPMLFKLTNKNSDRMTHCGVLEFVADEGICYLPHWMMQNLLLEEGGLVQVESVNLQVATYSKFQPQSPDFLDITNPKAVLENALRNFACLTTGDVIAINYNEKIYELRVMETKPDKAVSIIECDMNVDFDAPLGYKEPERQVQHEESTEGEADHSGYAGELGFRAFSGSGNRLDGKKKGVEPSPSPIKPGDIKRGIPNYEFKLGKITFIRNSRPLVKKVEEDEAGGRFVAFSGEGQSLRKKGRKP

[7] = molecular target: T4, Flag-NPL4 (UniProt Q8TAT6); test: as above
T4 sequence: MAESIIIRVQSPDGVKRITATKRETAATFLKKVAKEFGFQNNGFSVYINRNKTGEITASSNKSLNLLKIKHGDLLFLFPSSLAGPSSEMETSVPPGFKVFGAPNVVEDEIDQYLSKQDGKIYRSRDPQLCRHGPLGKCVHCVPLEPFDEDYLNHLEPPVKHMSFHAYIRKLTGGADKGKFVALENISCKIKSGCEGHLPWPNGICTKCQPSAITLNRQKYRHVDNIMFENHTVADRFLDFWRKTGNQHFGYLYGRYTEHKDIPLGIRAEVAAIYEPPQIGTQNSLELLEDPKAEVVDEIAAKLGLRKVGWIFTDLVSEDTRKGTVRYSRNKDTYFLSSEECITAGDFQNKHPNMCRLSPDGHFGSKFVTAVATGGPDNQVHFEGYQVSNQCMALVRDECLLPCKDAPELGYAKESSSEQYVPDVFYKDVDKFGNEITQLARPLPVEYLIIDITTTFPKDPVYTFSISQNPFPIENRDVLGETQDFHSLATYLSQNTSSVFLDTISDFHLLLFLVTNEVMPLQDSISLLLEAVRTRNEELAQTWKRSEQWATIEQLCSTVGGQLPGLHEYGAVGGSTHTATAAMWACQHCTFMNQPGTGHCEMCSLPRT

Molecule: Myc-Cul4A (from UniProt Q13619 1-759)
binding [1]: binds

Molecule: Flag-DDB1 (from UniProt Q16531 1-1140)
binding [4]: binds | binding [5]: binds

B1: GFP-Polη-5A (T457A/S458A/S459A/S466A/T471A) (protein, UniProt Q9Y253 1-713)
chain: T1 sequence with T457A, S458A, S459A, S466A, T471A
binding [6]: binds | binding [7]: binds

B2: GFP-Polη T457A (protein, UniProt Q9Y253 1-713)
chain: T1 sequence with T457A
binding [6]: binds | binding [7]: binds

Next, values leading:

binding [2]: binds | binding [3]: binds
Molecule: MDM2 (from UniProt Q00987 1-491)

binding [1]: binds
Molecule: Myc-DDB1 (from UniProt Q16531 1-1140)

binding [4]: binds | binding [5]: binds
Molecule: Flag-CDT2 (from UniProt Q9NZJ0 1-730)

binding [6]: binds | binding [7]: binds
B3: GFP-Polη (wild type) (protein, UniProt Q9Y253 1-713)
chain: T1 sequence
